Results published in paper PMC7819943, “Rice protein-binding microarrays: a tool to detect cis-acting elements near promoter regions in rice”.
The other results are listed elsewhere or left out.

Target: T1, OsSMF1 (Oryza sativa, UniProt Q6ZLB0 1-436)
T1 sequence: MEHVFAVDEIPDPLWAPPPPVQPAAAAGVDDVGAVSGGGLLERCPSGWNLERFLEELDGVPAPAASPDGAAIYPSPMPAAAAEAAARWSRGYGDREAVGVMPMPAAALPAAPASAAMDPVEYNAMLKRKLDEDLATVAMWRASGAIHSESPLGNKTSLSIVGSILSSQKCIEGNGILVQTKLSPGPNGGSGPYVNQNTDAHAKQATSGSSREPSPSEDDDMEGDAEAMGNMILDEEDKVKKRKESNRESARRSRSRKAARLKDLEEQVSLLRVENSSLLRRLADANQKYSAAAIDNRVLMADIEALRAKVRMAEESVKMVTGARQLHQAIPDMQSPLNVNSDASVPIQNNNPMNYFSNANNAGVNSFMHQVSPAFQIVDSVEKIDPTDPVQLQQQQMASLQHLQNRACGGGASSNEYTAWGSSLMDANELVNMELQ
Experiment: protein-binding microarray (RPBM); PBS, 2% BSA, 51.3 ng/ul salmon testes DNA, 50 uM zinc acetate, 200 nM TF, 25 C, 1 h; high values mean tight binding
Details: protein: recombinant; tags: N-terminal polyhistidine and DsRed monomer fusion (pET32a); chain copies: 2; label: CyDye5-dUTP incorporated in the synthesized complementary strand; 3' TTTTT single-stranded linker to array surface; dsDNA, one strand shown
Summary of the method: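 Transcription factors, each fused N-terminally to a polyhistidine tag and DsRed, were expressed in E. coli BL21-CodonPlus and purified on Ni–NTA. A custom Agilent array was made double-stranded by primer extension with Cy5-dUTP and blocked with 2% BSA. It was incubated with 200 nM protein in PBS, 2% BSA, salmon testes DNA and 50 µM zinc acetate at 25 °C for 1 h, then washed. The binding signal is per-feature fluorescence intensity (arbitrary units) read on an Axon 4000B scanner.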

Row | Sequence | binding signal
1 | CGCACTTCCGTCGCCTCCCCGCATCGCGTCGTACAACGGGCGGAGTCACCTAGTGCAG | 18300 fluorescence intensity (a.u.)
2 | TTATTTGGTGCGTGCGTACAAGACCAAAACCGTACGACAACGGAGTCACCTAGTGCAG | 18600 fluorescence intensity (a.u.)
3 | TAGTAGTAGTCTACTATATCCGCAGCGTGAGTGCGTGACGCGGAGTCACCTAGTGCAG | 4280 fluorescence intensity (a.u.)
4 | TAGTAGTAGAAGGACTTGAGTTGGCCAACTATCCGGTAATCGGAGTCACCTAGTGCAG | 4360 fluorescence intensity (a.u.)
5 | GCCATGACCATGTTCTCTTCTCCGTGGTAGGAGTATACTGCGGAGTCACCTAGTGCAG | 3420 fluorescence intensity (a.u.)
6 | CCATGGCCACACAACAAAGAACTCAAGAAGCAATTAACATCGGAGTCACCTAGTGCAG | 17500 fluorescence intensity (a.u.)
7 | ATCTCTCATAAATAGAGGGGCGTGCCTGTTGTAATCGCATCGGAGTCACCTAGTGCAG | 3680 fluorescence intensity (a.u.)
8 | TCTCTCTCTCGTGCGTCACCTCCTCGCGTGCTCAGCGCCGCGGAGTCACCTAGTGCAG | 3690 fluorescence intensity (a.u.)
9 | GAGCTACATGTTGTATTCCAGATCGCCAGACACGCATGCACGGAGTCACCTAGTGCAG | 25300 fluorescence intensity (a.u.)
10 | GGTGGTAAAATTAACATGCAAATCTATGTGAGTACTTTGGCGGAGTCACCTAGTGCAG | 27300 fluorescence intensity (a.u.)
11 | GCGATTGCGTCGACTCCACCAATGGTGTCGGATACCGCTGCGGAGTCACCTAGTGCAG | 35300 fluorescence intensity (a.u.)
12 | GTTGTATATGTAATTGATGATGCACTGTCTGAACTTCAGACGGAGTCACCTAGTGCAG | 4040 fluorescence intensity (a.u.)
13 | TCGCTGCATGAGCCCATGGCGGACACGTCGCCTCGCCACCCGGAGTCACCTAGTGCAG | 7180 fluorescence intensity (a.u.)
14 | ATACGTGCCAAGTTTTACTGATTATATCACTTATTAATTTCGGAGTCACCTAGTGCAG | 4430 fluorescence intensity (a.u.)
15 | AATTCTTTCTATATGGGTCTCACTTACTCATGGGTGTCACCGGAGTCACCTAGTGCAG | 4280 fluorescence intensity (a.u.)
16 | CACCTTCTGCCATCGATCGCTAGGCAAGAAGCTAAGCTAGCGGAGTCACCTAGTGCAG | 3320 fluorescence intensity (a.u.)
17 | ATCAAGGCTCACCGGATTCGAGCCCAATACGGACTCTGCTCGGAGTCACCTAGTGCAG | 36100 fluorescence intensity (a.u.)
18 | TCTCCTCGTTGGCCTTGACGGTGATGACGCCCTCTCAACGCGGAGTCACCTAGTGCAG | 3750 fluorescence intensity (a.u.)
19 | CCGCTCCCCGTCATTCTCACACCAAACATCTCCATCTCAACGGAGTCACCTAGTGCAG | 4100 fluorescence intensity (a.u.)
20 | GATGAACCTAAGTGACACCGCAGTCCAAGTCACCAGTGTACGGAGTCACCTAGTGCAG | 3890 fluorescence intensity (a.u.)
21 | AGTTTACTCCAGCTTCTTAACTTCTTGATACTGACTCACACGGAGTCACCTAGTGCAG | 5710 fluorescence intensity (a.u.)

Given tab-delimited: entries from further up
Row	Sequence	binding signal
2	TTATTTGGTGCGTGCGTACAAGACCAAAACCGTACGACAACGGAGTCACCTAGTGCAG	18600 fluorescence intensity (a.u.)
3	TAGTAGTAGTCTACTATATCCGCAGCGTGAGTGCGTGACGCGGAGTCACCTAGTGCAG	4280 fluorescence intensity (a.u.)

More records follow:

Row | Sequence | binding signal
22 | ACATCCTGAGGCATAAATAGCAGAAAACCACAAGTCGGGCCGGAGTCACCTAGTGCAG | 23800 fluorescence intensity (a.u.)
23 | AGTCGCACATGTCCCACAAAACCACGTGAGTTTCCGTCAGCGGAGTCACCTAGTGCAG | 3470 fluorescence intensity (a.u.)
24 | AAACCCGCCCAGATCCTACTGAATTGCGTCATCCCACGATCGGAGTCACCTAGTGCAG | 5290 fluorescence intensity (a.u.)
25 | GGAATCTTGTGATAAACTTATAAAATCATGAATTCCTTCACGGAGTCACCTAGTGCAG | 12400 fluorescence intensity (a.u.)
26 | GGACAGTCATGCACAACGCAAACGGCGACACGTAAGTTTTCGGAGTCACCTAGTGCAG | 6800 fluorescence intensity (a.u.)
27 | TAAAATCTTGCTCTCTTCTAATATGATGACGTGTAATTTTCGGAGTCACCTAGTGCAG | 17600 fluorescence intensity (a.u.)
28 | CGTCGCCGCAGTTTAATTGGCAGCTCACACACGCACGAGCCGGAGTCACCTAGTGCAG | 24500 fluorescence intensity (a.u.)
29 | GAATCTACGAGATTTGGATATTTGGATATTTTCCTTCTGACGGAGTCACCTAGTGCAG | 4190 fluorescence intensity (a.u.)
30 | TCCAACGGCTGGAGGTGGGAGACGACCGACAGGTGGGGCCCGGAGTCACCTAGTGCAG | 3880 fluorescence intensity (a.u.)
31 | CCTCAAACCCGAGGCCGAAGCTGACGCGTGCCGTGGTGACCGGAGTCACCTAGTGCAG | 4650 fluorescence intensity (a.u.)
32 | GTTGTATGCTGATATTGTGTCATCCCTTAGTACAAACACGCGGAGTCACCTAGTGCAG | 3640 fluorescence intensity (a.u.)
33 | CTCTGTCAGGTTGTGTGACCCATCAGTTTCTCTCCGTACTCGGAGTCACCTAGTGCAG | 4390 fluorescence intensity (a.u.)
34 | AATGTTTACTAGGCTATGTTGCATGATGCAACCAAGAGATCGGAGTCACCTAGTGCAG | 15100 fluorescence intensity (a.u.)
35 | AGCTTTTGGCTTCTCCTATAGCCTCTTTTGACATCATATCCGGAGTCACCTAGTGCAG | 3230 fluorescence intensity (a.u.)
36 | AGTTGTGGGCATGAATCGGATCGTGTAGGATGGGGATAGGCGGAGTCACCTAGTGCAG | 4540 fluorescence intensity (a.u.)
37 | CTTACGTACCATACGCACATCGTGTCATGAAGTCCGTACTCGGAGTCACCTAGTGCAG | 3210 fluorescence intensity (a.u.)
38 | TTTTCTTCTATGCGTTGTGACCTGTCCATCTATGTACTGTCGGAGTCACCTAGTGCAG | 5270 fluorescence intensity (a.u.)
39 | GGCGGCTGCGTCAAGCTCAACCACAGCCACGACATCGCCACGGAGTCACCTAGTGCAG | 5230 fluorescence intensity (a.u.)
40 | TGTTTTCTCTGTGATCGTGGTGTCAGCTTTGCTTGAATGTCGGAGTCACCTAGTGCAG | 3900 fluorescence intensity (a.u.)
41 | TTCGCTCCGACGAAACGCGCTGACGCTGACGGGGACAAGGCGGAGTCACCTAGTGCAG | 8720 fluorescence intensity (a.u.)
42 | TGAAAATTGCTCCTTAATTGTTGTCACTTGTCAGTGTCACCGGAGTCACCTAGTGCAG | 4330 fluorescence intensity (a.u.)
